{"sequences": {"note": "The chains behind the UniProt entries cited, without tags or fusion partners.", "UniProt P08684, whole entry": "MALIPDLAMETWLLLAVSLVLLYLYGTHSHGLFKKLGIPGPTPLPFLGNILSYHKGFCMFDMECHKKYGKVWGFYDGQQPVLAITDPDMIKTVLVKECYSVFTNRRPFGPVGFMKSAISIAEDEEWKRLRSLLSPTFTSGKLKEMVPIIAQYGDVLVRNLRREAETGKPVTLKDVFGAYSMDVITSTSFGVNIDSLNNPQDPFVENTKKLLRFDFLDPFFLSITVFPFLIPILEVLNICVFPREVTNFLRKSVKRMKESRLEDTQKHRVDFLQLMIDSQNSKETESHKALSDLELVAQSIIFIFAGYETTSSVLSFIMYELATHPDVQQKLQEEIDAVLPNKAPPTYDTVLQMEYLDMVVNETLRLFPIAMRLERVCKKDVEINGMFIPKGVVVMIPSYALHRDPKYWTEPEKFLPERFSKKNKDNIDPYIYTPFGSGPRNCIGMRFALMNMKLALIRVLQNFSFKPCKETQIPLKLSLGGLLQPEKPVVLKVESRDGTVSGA"}, "source": "patent US9138393B2", "about": "“Cosmetic compositions containing substituted azole and methods for improving the appearance of aging skin” (The Proctor & Gamble Company, priority 2013, dated 2015)", "biological_target": "CYP3A4 (Homo sapiens (Human), UniProt P08684)", "experiment": "In vitro CYP3A4 inhibition assay (P450-GLO Assay kit, Promega)", "settings": "human recombinant CYP3A4, P450-GLO kit", "note": "The structures given here were assigned with low confidence; some may be wrong."}
{"smiles": "CCCCc1nc(Cl)c(CO)[nH]1", "values": [{"measurement": "IC50", "value": "> 10", "unit": "µM"}]}
